Reference: US20050187581A1, “Methods of treating disorders with electric fields” (priority 2000, published 2005)

Experiments:
[1] = after 60 min session, n=6, P<0.05

**Q.** How did the “Increase of plasma ACTH level by 30 min restraint, post vs pre” value (restrained rats; diazepam 1 mg/kg B.W. i.p.) turn out when CN1C(=O)CN=C(c2ccccc2)c2cc(Cl)ccc21 [diazepam] was run?
**A.** 2.3 fold

**Q.** And the “Plasma ACTH level, pre-restraint” value (restrained rats; diazepam 1 mg/kg B.W. i.p. 30 min before restraint, mean ± S.E.)?
**A.** 358 ± 73 pg/mL

**Q.** What about the “Plasma ACTH level, post-restraint” value (restrained rats; diazepam 1 mg/kg B.W. i.p., 30 min after start of restraint, mean ± S.E.) of the same compound?
**A.** 810 ± 121 pg/mL

**Q.** And the “Effect on restraint-induced increase of plasma glucose level” value (ovariectomized rats; after 60 min session, n=6)?
**A.** tendency to suppress

**Q.** And the “Plasma lactate levels compared to the restraint alone group” value (ovariectomized rats; [1])?
**A.** significantly lower

**Q.** And the “Plasma pyruvate levels compared to sham EF exposure group” value (ovariectomized rats; [1])?
**A.** significantly lower

**Q.** What about the “Elevation of plasma ACTH level, post- vs pre-session” value (ovariectomized rats; restraint and diazepam, diazepam 30 min before start of session) of the same compound?
**A.** 13.7 fold
